Measured values: publication PMC12435150
Where two headings read alike, the source gives them in different places. No constants are given. Whether binding was seen depends on the method and setting. In cells and extracts the contact can be indirect. These calls come from enrichment with a bait or labelling near it, and not all partners need be listed.

Chains of the proteins cited; added tags and fusions are not shown. Residues count along the entry.
UniProt O89109: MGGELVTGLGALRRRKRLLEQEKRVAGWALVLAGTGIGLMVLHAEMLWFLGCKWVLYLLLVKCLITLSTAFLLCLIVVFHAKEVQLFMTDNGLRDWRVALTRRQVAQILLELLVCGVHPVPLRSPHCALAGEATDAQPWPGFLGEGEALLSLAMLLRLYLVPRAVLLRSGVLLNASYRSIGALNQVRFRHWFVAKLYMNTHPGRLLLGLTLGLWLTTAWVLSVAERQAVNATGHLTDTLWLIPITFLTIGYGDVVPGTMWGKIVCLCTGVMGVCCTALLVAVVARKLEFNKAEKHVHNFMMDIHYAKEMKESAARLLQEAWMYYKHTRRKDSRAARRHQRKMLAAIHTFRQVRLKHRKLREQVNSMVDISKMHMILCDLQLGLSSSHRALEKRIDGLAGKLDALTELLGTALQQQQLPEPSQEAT
UniProt P83093, residues 15-746: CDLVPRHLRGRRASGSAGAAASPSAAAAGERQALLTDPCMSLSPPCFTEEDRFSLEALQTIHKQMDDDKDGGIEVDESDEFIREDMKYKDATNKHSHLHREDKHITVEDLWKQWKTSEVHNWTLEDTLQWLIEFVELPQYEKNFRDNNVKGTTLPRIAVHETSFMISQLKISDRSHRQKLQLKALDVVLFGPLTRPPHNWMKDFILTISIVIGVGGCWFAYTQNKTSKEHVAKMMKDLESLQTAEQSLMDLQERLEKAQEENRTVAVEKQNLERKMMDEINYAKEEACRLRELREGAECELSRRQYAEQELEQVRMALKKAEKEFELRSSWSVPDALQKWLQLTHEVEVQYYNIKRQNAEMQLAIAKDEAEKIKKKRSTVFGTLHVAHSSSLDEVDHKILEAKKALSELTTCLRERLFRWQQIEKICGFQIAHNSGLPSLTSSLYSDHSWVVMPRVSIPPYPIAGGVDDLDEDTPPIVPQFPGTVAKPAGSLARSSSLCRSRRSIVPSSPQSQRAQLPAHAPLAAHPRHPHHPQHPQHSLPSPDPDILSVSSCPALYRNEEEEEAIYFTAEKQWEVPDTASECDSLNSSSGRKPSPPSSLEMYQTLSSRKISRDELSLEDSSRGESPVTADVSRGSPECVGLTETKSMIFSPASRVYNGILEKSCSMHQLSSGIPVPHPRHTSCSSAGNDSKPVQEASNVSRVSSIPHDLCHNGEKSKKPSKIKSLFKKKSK
UniProt P70302, residues 23-685: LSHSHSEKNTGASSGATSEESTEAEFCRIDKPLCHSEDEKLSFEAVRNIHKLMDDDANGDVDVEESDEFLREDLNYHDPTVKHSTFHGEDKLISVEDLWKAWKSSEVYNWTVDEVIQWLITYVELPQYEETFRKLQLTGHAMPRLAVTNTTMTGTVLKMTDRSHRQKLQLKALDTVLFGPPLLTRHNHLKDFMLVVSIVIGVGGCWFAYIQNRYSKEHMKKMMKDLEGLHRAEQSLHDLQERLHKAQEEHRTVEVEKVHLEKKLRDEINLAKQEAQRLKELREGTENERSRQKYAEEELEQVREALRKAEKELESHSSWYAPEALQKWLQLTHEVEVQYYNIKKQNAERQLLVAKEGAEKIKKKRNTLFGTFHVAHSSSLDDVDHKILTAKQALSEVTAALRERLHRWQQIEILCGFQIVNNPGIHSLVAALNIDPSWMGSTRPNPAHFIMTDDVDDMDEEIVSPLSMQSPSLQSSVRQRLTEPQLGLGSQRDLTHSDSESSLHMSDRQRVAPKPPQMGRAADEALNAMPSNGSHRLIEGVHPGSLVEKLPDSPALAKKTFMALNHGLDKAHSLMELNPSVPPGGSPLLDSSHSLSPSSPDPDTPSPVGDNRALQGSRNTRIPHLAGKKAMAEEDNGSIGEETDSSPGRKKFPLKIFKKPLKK
UniProt Q80U72: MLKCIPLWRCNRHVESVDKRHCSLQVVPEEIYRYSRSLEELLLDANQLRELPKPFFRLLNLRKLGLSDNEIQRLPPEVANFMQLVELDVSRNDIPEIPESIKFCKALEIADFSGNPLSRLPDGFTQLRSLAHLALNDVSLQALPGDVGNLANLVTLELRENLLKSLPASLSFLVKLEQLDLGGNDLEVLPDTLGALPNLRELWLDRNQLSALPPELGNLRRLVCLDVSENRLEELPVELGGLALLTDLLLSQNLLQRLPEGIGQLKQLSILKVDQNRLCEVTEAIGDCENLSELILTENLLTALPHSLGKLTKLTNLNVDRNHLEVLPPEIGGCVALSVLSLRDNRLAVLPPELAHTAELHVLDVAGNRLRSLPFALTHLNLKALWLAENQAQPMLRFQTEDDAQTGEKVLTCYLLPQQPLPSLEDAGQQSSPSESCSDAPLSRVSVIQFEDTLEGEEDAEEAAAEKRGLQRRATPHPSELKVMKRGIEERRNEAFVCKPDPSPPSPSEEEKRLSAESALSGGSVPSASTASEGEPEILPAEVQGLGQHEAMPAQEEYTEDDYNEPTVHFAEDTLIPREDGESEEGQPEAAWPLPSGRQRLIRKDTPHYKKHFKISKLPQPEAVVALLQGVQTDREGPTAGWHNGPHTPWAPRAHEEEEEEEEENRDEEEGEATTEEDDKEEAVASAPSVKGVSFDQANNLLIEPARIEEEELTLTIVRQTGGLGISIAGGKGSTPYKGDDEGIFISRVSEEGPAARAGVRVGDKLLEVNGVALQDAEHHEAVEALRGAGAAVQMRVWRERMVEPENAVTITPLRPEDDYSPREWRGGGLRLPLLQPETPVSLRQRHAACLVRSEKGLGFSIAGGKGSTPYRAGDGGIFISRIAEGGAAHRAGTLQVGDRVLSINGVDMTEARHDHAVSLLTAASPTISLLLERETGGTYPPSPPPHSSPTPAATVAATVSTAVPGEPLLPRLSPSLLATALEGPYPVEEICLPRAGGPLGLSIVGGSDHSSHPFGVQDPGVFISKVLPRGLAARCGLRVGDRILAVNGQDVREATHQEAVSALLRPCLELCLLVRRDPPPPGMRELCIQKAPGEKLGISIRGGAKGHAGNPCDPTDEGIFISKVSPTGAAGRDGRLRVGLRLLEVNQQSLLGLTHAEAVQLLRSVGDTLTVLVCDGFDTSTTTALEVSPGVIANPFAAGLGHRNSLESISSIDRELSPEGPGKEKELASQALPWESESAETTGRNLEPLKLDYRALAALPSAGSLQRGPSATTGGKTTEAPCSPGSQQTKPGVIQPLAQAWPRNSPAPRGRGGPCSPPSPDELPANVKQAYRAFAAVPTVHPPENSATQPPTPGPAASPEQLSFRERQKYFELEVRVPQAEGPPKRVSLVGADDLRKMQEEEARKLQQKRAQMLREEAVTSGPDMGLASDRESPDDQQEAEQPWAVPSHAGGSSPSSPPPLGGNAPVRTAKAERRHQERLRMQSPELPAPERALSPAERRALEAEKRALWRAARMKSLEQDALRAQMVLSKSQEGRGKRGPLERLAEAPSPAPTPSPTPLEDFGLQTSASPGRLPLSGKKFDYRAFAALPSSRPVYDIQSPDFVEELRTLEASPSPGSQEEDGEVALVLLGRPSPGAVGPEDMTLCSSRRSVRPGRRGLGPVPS
UniProt P16056, residues 25-1379: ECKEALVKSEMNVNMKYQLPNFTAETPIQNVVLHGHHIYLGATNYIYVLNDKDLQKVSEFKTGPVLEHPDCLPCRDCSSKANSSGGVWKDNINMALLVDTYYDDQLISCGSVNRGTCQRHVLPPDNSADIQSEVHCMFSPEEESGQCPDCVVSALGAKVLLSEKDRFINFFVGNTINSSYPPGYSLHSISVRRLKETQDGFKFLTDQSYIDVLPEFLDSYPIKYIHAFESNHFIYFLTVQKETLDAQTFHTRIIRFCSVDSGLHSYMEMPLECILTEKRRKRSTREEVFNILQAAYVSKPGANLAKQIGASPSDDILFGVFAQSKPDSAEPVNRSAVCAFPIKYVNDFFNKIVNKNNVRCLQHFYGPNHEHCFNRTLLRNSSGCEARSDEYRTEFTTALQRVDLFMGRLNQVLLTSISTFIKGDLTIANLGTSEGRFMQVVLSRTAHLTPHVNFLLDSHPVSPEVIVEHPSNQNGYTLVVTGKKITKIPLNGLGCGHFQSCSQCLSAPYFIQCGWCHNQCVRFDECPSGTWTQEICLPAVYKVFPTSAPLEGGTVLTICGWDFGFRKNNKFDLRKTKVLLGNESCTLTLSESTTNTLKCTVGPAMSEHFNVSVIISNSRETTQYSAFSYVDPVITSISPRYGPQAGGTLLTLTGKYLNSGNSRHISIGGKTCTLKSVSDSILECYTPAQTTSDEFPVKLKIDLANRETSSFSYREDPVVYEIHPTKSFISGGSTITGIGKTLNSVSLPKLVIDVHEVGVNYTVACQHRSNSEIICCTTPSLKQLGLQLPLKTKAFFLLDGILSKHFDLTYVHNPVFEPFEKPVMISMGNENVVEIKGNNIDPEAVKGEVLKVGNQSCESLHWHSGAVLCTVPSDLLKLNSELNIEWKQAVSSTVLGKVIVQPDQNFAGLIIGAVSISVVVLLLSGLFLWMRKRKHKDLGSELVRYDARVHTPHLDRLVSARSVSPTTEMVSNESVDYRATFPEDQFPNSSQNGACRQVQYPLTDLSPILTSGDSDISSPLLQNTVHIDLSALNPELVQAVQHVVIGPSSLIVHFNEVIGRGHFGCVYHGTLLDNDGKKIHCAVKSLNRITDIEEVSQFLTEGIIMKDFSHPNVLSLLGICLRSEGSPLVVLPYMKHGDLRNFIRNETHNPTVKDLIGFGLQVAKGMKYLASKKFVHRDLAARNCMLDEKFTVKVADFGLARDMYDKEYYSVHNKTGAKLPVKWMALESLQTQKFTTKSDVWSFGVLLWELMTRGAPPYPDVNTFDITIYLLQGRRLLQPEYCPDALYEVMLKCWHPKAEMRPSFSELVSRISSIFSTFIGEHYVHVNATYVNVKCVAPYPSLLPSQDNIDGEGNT
UniProt P70424, residues 23-1256: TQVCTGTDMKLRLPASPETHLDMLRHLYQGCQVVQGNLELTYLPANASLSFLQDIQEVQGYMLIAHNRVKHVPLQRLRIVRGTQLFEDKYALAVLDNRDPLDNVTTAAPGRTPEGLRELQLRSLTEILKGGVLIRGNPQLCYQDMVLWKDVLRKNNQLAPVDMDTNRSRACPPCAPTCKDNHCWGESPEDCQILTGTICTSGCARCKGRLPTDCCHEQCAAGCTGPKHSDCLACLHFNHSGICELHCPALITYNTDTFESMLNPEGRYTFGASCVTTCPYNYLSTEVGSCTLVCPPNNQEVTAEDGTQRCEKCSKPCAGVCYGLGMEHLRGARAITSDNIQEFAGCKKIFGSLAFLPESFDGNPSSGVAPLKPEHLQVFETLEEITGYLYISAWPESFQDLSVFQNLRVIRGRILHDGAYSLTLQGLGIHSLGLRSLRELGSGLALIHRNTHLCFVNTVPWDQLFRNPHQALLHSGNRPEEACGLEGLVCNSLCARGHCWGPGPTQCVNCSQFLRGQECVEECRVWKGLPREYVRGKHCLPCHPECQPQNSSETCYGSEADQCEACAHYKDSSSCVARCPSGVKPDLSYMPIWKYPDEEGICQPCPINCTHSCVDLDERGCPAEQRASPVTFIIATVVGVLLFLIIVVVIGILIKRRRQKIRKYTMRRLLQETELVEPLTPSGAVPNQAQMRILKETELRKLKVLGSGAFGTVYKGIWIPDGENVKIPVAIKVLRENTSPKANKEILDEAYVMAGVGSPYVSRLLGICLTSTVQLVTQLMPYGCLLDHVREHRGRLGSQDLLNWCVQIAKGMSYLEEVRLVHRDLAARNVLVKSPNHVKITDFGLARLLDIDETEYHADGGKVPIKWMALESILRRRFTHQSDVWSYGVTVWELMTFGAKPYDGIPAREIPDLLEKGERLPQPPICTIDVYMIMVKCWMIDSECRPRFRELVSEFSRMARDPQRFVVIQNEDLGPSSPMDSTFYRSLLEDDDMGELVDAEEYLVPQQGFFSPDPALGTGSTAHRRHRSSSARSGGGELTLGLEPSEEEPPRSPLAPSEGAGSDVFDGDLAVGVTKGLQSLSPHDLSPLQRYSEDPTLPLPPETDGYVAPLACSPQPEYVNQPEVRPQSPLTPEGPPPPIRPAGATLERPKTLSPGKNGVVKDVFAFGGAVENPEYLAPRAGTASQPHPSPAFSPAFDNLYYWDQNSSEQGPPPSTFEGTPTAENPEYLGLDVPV

Experiments:
[1] = target: KCa3.1-FLAG-TurboID (mouse) (UniProt O89109); test: proximity labelling; TurboID in intact KPC cells: KCa3.1-FLAG-TurboID induced with 1 ug/mL doxycycline for 24 h, 50 uM biotin for 3 h, RIPA lysis, streptavidin beads, TMT mass spectrometry; control cells with FLAG-TurboID; three independent repeats; hit: FDR below 5% and 1.5-fold change
[2] = target: KCa3.1-FLAG-TurboID (mouse) (UniProt O89109); test: as above; remark: listed apart in the source

With STIM2 (from UniProt P83093 15-746) the binding [1] was “binds”.

“STIM1 (in KPC cells) (from UniProt P70302 23-685)” was tested, and the binding [1] was “binds”.

For SCRIB (from UniProt Q80U72 1-1665), the binding [1] was “binds”.

ERBIN (from UniProt Q80TH2 1-1402) was tested, and the binding [1] was “binds”.

For ABCC5 (from UniProt Q9R1X5 1-1436), the binding [1] was “binds”.

“MET (from UniProt P16056 25-1379) (receptor)” was tested, and the binding [1] was “binds”.

For APC (from UniProt Q61315 1-2845), the binding [1] was “binds”.

For SCFD1 (from UniProt Q8BRF7 1-639), the binding [1] was “binds”.

With “AHCYL1, adenosylhomocysteine hydrolase-like protein 1 (from UniProt Q80SW1 1-530)” the binding [1] was “binds”.

In the case of DISP1 (from UniProt Q3TDN0 1-1521), the binding [1] is reported as “binds”.

For “ERBB2 (HER2) (from UniProt P70424 23-1256) (receptor)”, the binding [1] was “binds”.

For “CTNNB1 (β-catenin) (from UniProt Q02248 1-781)”, the binding [1] was “binds”.

B1: USE1 (protein, UniProt Q9CQ56 1-270)
chain: MAQAEGAYHRPLATSRLELNLVRLLCRCESMAAEKREPDEWRLEKYVGALEDMLQALKVQASKPASEVISEYSRKVDFLKGMLQAEKLTSSSEKALANQFLAPGRVPTTAKERVPATKTVHLQSRARYTSEMRSELLGMEPSGECEVDMRKRAAKGSRPADERQSASELDLVLQRHQGLQEKLAEEMLGLARSLKTNTLAAQSVIKKDNQTLSHSLKMADQNLEKLKLESERLEQHAQKSVNWLLWAMLIVVCFVFISMILFIRIMPRLK
In the case of B1, the binding [2] is reported as “binds”.

B2: TSG101 (tumor susceptibility gene 101) (protein, UniProt Q61187 1-391)
chain: MAVSESQLKKMMSKYKYRDLTVRQTVNVIAMYKDLKPVLDSYVFNDGSSRELVNLTGTIPVRYRGNIYNIPICLWLLDTYPYNPPICFVKPTSSMTIKTGKHVDANGKIYLPYLHDWKHPRSELLELIQIMIVIFGEEPPVFSRPTVSASYPPYTATGPPNTSYMPGMPSGISAYPSGYPPNPSGYPGCPYPPAGPYPATTSSQYPSQPPVTTVGPSRDGTISEDTIRASLISAVSDKLRWRMKEEMDGAQAELNALKRTEEDLKKGHQKLEEMVTRLDQEVAEVDKNIELLKKKDEELSSALEKMENQSENNDIDEVIIPTAPLYKQILNLYAEENAIEDTIFYLGEALRRGVIDLDVFLKHVRLLSRKQFQLRALMQKARKTAGLSDLY
In the case of B2, the binding [2] is reported as “binds”.

B3: USP8 (enzyme, UniProt Q80U87 1-1080)
chain: MPAVASVPKELYLSSSLKDLNKKTEVKPEKTSTKNYIHSAQKIFKTAEECRLDRDEERAYVLYMKYVAVYNLIKKRPDFKQQQDYYLSILGPANIKKAIEEAERLSESLKLRYEEAEVRKQLEEKDRREEEQLQQQKRQEMGREDSGAAAKRSVENLLDSKTKTQRINGEKSEGAAAAERGAITAKELYTMMMDKNTSLIIMDARKIQDYQHSCILDSLSVPEEAISPGVTASWIEANLSDDSKDTWKKRGSVDYVVLLDWFSSAKDLLLGTTLRSLKDALFKWESKTVLRHEPLVLEGGYENWLLCYPQFTTNAKVTPPPRSRAEEVSVSLDFTYPSLEEPVPSKLPTQMPPPPIETNEKALLVTDQDEKLRLSTQPALAGPGAAPRAEASPIIQPAPATKSVPQVDRTKKPSVKLPEDHRIKSENTDQSGRVLSDRSTKPVFPSPTTMLTDEEKARIHQETALLMEKNKQEKELWDKQQKEQKEKLRREEQERKAGKTQDADERDSTENQHKAKDGQEKKDSKQTKTEDRELSADGAQEATGTQRQSKSEHEASDAKVPVEGKRCPTSEAQKRPADVSPASVSGELNAGKAQREPLTRARSEEMGRIVPGLPLGWAKFLDPITGTFRYYHSPTNTVHMYPPEMAPSSAPPSTPPTHKVKPQVPAERDREPSKLKRSYSSPDITQALQEEEKRRPAVTPMVNRENKPPCYPKAEISRLSASQIRNLNPVFGGSGPALTGLRNLGNTCYMNSILQCLCNAPHLADYFNRNCYQDDINRSNLLGHKGEVAEEFGIIMKALWTGQYRYISPKDFKVTIGKINDQFAGSSQQDSQELLLFLMDGLHEDLNKADNRKRHKEENNEHLDDLQAAEHAWQKHKQLNESIIVALFQGQFKSTVQCLTCRRRSRTFEAFMYLSLPLASTSKCTLQDCLRLFSKEEKLTDNNRFYCSHCRARRDSLKKIEIWKLPPVLLVHLKRFSYDGRWKQKLQTSVDFPLENLDLSQYVIGPKNSLKKYNLFSVSNHYGGLDGGHYTAYCKNAARQRWFKFDDHEVSDISVSSVRSSAAYILFYTSLGPRITDVAT
B3 was tested, and the binding [2] was “binds”.

B4: WW domain-containing oxidoreductase (WWOX) (protein, UniProt Q91WL8 1-414)
chain: MAALRYAGLDDTDSEDELPPGWEERTTKDGWVYYANHTEEKTQWEHPKTGKRKRVAGDLPYGWEQETDENGQVFFVDHINKRTTYLDPRLAFTVDDNPTKPTTRQRYDGSTTAMEILQGRDFTGKVVLVTGANSGIGFETAKSFALHGAHVILACRNLSRASEAVSRILEEWHKAKVEAMTLDLAVLRSVQHFAEAFKAKNVSLHVLVCNAGTFALPWGLTKDGLETTFQVNHLGHFYLVQLLQDVLCRSSPARVIVVSSESHRFTDINDSSGKLDLSRLSPPRSDYWAMLAYNRSKLCNILFSNELHRRLSPRGVTSNAVHPGNMMYSAIHRNSWVYKLLFTLARPFTKSMQQGAATTVYCAVAPELEGLGGMYFNNCCRCLPSEEAQSEETARALWELSERLIQDRLGSPSS
For B4, the binding [2] was “binds”.

B5: PTPN14 (enzyme, UniProt Q62130 1-1189)
chain: MPFGLKLRRTRRYNVLSKNCFVTRIRLLDSNVIECTLSVESTGQECLEAVAQRLELRETHYFGLWFLSKSQQARWVELEKPLKKHLDKFANEPLLFFGVMFYVPNVSRLQQEATRYQYYLQVKKDVLEGRLRCSLEQVIRLAGLAVQADFGDYNQFDSQEFLREYVLFPMDLAMEEAALEELTQKVAQEHKAHSGILPAEAELMYINEVERLDGFGQEIFPVKDSHGNSVHLGIFFMGIFVRNRVGRQAVIYRWNDIGSVTHSKAAILLELIDKEETALFHTDDIENAKYISRLFTTRHKFYKQNKICTEQSNSPPPIRRQPTWSRSSLPRQQPYILPPMHVQCSEHYSETHTSQDSIFPGNEEALYCRSHNSLDLNYLNGTVTNGSVCSVHSVNSLSCSQSFIQASPVSSNLSIPGSDIMRADYIPSHRHSTIIVPSYRPTPDYETVMRQMKRGLMHADSQSRSLRNLNIINTHAYNQPEELVYSQPEMRERHPYTVPYAHQGCYGHKLVSPSDQMNPQNCAMPIKPGASSISHTVSTPELANMQLQGAQHYSTAHMLKNYLFRPPPPYPRPRPATSTPDLASHRHKYVSGSSPDLVTRKVQLSVKTFQEDSSPVVHQSLQEVSEPLTATKHHGGGGGTVNKRHSLEVMNSMVRGMEAMTLKSLNIPMARRNTLREQGPSEETGGHEVHGLPQYHHKKTFSDATMLIHSSESEEEEETLEAAPQVPVLREKVEYSAQLQAALARIPNRPPPEYPGPRKSVSNGALRQDQGTPLPAMARCRVLRHGPSKALSVSRAEQLAVNGASLGPSISEPDLTSVKERVKKEPVKERPVSEMFSLEDSIIEREMMIRNLEKQKMTGPQAQKRPLMLAALNGLSVARVSGREDGHHDATRVPIDERLRALKKKLEDGMVFTEYEQIPNKKANGVFSTATLPENAERSRIREVVPYEENRVELIPTKENNTGYINASHIKVVVGGSEWHYIATQGPLPHTCHDFWQMVWEQGVNVIAMVTAEEEGGRTKSHRYWPKLGSKHSSATYGKFKVTTKFRTDSGCYATTGLKVKHLLSGQERTVWHLQYTDWPHHGCPEDVQGFLSYLEEIQSVRRHTNSVLEGIRTRHPPIVVHCSAGVGRTGVVILSELMIYCLEHNEKVEVPTMLRFLREQRMFMIQTIAQYKFVYQVLVQFLQNSRLI
In the case of B5, the binding [2] is reported as “binds”.

B6: CTNND1 (p120-catenin) (protein, UniProt P30999 1-938)
chain: MDDSEVESTASILASVKEQEAQFEKLTRALEEERRHVSAQLERVRVSPQDANSLMANGTLTRRHQNGRFVGDADLERQKFSDLKLNGPQDHNHLLYSTIPRMQEPGQIVETYTEEDPEGAMSVVSVETTDDGTTRRTETTVKKVVKTMTTRTVQPVPMGPDGLPVDASAVSNNYIQTLGRDFRKNGNGGPGPYVGQAGTATLPRNFHYPPDGYGRHYEDGYPGGSDNYGSLSRVTRIEERYRPSMEGYRAPSRQDVYGPQPQVRVGGSSVDLHRFHPEPYGLEDDQRSMGYDDLDYGMMSDYGTARRTGTPSDPRRRLRSYEDMIGEEVPPDQYYWAPLAQHERGSLASLDSLRKGMPPPSNWRQPELPEVIAMLGFRLDAVKSNAAAYLQHLCYRNDKVKTDVRKLKGIPILVGLLDHPKKEVHLGACGALKNISFGRDQDNKIAIKNCDGVPALVRLLRKARDMDLTEVITGTLWNLSSHDSIKMEIVDHALHALTDEVIIPHSGWEREPNEDCKPRHIEWESVLTNTAGCLRNVSSERSEARRKLRECDGLVDALIFIVQAEIGQKDSDSKLVENCVCLLRNLSYQVHREIPQAERYQEALPTVANSTGPHAASCFGAKKGKDEWFSRGKKPTEDPANDTVDFPKRTSPARGYELLFQPEVVRIYISLLKESKTPAILEASAGAIQNLCAGRWTYGRYIRSALRQEKALSAIAELLTSEHERVVKAASGALRNLAVDARNKELIGKHAIPNLVKNLPGGQQNSSWNFSEDTVVSILNTINEVIAENLEAAKKLRETQGIEKLVLINKSGNRSEKEVRAAALVLQTIWGYKELRKPLEKEGWKKSDFQVNLNNASRSQSSHSYDDSTLPLIDRNQKSDKKPDREEIPMSNMGSNTKSLDNNYSTLNERGDHNRTLDRSGDLGDMEPLKGAPLMQKI
In the case of B6, the binding [2] is reported as “binds”.
